Here are results for three substances from PMC5596555.

Chains of the proteins cited; added tags and fusions are not shown. Lines headed by an entry give the natural chain unless they say otherwise; changes in a name come on top.
UniProt Q9HCE7: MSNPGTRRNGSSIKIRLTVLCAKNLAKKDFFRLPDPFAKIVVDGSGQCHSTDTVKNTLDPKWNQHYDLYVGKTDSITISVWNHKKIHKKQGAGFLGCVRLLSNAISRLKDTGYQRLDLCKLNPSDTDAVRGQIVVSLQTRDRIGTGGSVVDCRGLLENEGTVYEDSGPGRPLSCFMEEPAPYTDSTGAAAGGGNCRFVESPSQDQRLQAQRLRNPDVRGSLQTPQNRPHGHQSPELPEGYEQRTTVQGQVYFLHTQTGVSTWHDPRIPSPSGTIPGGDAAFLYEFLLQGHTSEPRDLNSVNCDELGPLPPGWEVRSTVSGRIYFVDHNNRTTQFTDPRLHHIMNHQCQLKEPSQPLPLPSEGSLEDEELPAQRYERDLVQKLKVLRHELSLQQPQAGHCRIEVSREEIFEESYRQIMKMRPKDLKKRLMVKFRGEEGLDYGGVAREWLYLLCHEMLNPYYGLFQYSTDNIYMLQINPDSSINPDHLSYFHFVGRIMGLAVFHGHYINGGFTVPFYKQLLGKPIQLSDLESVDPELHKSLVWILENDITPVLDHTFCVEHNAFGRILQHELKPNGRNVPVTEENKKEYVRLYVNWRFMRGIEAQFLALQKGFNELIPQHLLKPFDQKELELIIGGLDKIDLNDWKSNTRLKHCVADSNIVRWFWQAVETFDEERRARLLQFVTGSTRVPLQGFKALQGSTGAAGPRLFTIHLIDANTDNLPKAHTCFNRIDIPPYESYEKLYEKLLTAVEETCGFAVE
UniProt Q13404: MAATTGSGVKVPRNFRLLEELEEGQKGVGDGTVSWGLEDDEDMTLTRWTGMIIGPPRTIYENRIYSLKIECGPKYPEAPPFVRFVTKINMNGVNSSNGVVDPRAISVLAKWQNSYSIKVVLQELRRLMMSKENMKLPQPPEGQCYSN

The target in assay [1] is His6-tagged Smurf1 (UniProt Q9HCE7). Description: pull-down; His6-Smurf1 purified from bacterial cells on nickel agarose beads; incubated with U2OS cell extract overexpressing HA-tagged Uevs overnight at 4 °C; washed five times with lysis buffer; anti-HA blot; only the target purified.
Assay [2] has as its target GST-tagged Uev1A (UniProt Q13404). Description: pull-down; purified GST-tagged Uevs on GST beads; incubated with purified His6-Smurf1 overnight at 4 °C; washed four times with lysis buffer; anti-GST and anti-His6 blots; both purified.

These are yes or no findings as the source states them, for the method shown. A result given as binding can be weak or reduced; the word gives no strength. For part of these data: Binding seen in cells or lysates may run through a third protein.

Turning to “HA-tagged Uev1A-F38E (from UniProt Q13404-2)”, the binding entry in assay [1] is “binds”.
With HA-tagged Uev1A (from UniProt Q13404-2), the binding result in assay [1] is given as “binds”.
Consider “His6-tagged Smurf1 (from UniProt Q9HCE7 1-757) (enzyme)”, for which the binding result in assay [2] was “binds”.
